Laboratory results reported in the supplement of paper PMC12823440, “Inhibitors supercharge kinase turnover through native proteolytic circuits” (Nature, 2025).
Structures can show the parent of a compound that is named as a salt. This is one part of the list. Hit calls seldom repeat between salt and free forms of one compound.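 Kinases, fused to nanoluciferase, were expressed in K562 cells; luminescence was measured every 4 h from 2 to 18 h as percent of control (DMSO = 100%, positive control = 0%). A time point is decreased if signal falls significantly (2 sigma). Hits were called by the authors by a rule that is not shown; the count of time points alone does not decide it.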

By UniProt entry, the sequences of proteins in these tests, tags left out. Where a name states a change or a piece, a line headed by the entry shows the natural chain unless it says otherwise.
UniProt P28482, whole entry: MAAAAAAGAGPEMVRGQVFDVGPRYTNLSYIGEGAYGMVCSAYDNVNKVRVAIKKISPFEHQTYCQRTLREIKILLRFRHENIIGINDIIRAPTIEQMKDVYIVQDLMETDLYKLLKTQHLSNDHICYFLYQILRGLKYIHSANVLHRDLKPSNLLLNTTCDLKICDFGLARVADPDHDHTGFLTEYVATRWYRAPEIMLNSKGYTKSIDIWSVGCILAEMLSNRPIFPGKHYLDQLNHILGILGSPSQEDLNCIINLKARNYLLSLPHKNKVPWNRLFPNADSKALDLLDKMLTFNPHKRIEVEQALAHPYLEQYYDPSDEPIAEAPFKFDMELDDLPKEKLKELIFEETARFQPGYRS
UniProt P31152, whole entry: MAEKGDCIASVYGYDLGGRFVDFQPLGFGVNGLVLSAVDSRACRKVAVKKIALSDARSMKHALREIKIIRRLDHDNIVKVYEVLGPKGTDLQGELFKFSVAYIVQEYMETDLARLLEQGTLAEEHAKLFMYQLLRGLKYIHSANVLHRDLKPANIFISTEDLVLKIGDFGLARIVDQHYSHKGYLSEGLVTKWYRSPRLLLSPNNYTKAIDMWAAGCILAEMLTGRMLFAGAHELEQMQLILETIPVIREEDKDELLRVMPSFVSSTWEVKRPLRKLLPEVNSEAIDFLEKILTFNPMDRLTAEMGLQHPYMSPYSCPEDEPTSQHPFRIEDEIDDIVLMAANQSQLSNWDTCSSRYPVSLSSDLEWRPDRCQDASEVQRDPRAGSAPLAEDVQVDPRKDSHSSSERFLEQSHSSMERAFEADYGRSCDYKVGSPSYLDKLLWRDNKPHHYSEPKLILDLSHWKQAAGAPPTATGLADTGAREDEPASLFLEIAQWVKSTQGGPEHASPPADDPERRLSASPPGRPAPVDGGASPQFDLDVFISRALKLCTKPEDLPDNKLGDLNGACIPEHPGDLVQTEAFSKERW
UniProt P49137, whole entry, looked up: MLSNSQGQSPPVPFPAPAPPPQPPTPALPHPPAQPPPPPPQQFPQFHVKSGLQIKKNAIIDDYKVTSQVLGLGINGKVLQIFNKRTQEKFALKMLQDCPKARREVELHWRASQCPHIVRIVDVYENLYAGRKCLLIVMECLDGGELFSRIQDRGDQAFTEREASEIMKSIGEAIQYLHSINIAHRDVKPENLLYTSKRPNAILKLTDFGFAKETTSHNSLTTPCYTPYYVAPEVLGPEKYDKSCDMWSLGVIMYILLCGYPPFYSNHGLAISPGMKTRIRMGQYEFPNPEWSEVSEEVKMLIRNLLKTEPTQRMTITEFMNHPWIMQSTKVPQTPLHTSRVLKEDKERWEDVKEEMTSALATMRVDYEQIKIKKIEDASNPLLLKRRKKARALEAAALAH
UniProt Q9BUB5: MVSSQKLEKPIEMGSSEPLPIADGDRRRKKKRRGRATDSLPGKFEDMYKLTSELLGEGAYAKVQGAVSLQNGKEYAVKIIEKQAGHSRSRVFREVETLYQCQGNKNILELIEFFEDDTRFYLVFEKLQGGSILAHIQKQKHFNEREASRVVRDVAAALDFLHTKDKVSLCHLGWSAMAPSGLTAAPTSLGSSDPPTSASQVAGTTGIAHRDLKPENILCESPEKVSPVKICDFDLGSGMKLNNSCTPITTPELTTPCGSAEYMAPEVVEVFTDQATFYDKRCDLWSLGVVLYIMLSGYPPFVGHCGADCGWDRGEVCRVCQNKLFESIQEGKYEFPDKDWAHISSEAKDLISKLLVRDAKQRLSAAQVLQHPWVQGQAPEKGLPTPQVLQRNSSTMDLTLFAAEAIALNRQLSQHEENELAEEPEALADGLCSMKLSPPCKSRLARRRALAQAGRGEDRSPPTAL
UniProt Q16620, whole entry, looked up: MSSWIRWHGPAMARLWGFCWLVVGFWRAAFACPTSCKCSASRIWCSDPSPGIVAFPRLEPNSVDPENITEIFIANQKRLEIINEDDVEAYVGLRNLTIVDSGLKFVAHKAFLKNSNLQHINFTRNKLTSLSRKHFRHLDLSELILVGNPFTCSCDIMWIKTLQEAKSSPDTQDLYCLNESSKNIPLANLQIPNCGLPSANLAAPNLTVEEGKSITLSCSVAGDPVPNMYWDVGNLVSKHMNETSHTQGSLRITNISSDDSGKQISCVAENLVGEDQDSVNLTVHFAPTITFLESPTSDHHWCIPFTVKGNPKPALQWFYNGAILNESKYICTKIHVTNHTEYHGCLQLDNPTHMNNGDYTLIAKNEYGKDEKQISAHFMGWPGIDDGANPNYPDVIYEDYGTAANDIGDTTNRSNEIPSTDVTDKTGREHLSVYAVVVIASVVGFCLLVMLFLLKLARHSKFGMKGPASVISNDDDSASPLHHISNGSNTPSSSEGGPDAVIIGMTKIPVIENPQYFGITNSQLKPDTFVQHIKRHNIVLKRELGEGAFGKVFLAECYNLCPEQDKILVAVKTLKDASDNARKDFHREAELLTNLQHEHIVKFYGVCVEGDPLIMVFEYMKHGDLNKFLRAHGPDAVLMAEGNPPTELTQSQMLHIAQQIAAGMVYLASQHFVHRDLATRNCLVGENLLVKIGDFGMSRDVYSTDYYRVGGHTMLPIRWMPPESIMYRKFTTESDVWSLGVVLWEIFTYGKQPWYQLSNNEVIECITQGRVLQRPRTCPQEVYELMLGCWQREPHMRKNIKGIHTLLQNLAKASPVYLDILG
UniProt O96013: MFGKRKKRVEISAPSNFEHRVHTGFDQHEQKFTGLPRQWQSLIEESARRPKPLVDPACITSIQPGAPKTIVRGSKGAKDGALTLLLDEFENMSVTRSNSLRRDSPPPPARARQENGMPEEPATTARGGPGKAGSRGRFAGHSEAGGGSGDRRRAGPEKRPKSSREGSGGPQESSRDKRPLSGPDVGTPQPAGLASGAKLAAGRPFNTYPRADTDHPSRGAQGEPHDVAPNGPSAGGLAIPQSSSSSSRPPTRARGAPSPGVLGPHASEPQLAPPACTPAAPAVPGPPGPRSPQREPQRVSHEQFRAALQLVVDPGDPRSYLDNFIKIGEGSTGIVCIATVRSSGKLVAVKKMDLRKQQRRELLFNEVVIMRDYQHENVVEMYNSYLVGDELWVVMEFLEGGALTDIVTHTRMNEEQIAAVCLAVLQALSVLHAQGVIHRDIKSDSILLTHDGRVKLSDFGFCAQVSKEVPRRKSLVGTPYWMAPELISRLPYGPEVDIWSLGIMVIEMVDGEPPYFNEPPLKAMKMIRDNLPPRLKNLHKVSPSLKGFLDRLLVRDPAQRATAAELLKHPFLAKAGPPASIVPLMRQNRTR
UniProt Q96KB5: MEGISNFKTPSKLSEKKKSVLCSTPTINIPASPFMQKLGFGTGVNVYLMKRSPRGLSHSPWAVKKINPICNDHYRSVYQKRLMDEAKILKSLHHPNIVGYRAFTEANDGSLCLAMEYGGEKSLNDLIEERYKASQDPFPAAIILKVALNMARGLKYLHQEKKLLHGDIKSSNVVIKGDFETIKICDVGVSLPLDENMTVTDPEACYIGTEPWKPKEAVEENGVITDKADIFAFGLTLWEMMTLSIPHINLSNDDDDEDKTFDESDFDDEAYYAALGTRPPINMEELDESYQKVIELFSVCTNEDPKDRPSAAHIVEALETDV
UniProt P09619, whole entry: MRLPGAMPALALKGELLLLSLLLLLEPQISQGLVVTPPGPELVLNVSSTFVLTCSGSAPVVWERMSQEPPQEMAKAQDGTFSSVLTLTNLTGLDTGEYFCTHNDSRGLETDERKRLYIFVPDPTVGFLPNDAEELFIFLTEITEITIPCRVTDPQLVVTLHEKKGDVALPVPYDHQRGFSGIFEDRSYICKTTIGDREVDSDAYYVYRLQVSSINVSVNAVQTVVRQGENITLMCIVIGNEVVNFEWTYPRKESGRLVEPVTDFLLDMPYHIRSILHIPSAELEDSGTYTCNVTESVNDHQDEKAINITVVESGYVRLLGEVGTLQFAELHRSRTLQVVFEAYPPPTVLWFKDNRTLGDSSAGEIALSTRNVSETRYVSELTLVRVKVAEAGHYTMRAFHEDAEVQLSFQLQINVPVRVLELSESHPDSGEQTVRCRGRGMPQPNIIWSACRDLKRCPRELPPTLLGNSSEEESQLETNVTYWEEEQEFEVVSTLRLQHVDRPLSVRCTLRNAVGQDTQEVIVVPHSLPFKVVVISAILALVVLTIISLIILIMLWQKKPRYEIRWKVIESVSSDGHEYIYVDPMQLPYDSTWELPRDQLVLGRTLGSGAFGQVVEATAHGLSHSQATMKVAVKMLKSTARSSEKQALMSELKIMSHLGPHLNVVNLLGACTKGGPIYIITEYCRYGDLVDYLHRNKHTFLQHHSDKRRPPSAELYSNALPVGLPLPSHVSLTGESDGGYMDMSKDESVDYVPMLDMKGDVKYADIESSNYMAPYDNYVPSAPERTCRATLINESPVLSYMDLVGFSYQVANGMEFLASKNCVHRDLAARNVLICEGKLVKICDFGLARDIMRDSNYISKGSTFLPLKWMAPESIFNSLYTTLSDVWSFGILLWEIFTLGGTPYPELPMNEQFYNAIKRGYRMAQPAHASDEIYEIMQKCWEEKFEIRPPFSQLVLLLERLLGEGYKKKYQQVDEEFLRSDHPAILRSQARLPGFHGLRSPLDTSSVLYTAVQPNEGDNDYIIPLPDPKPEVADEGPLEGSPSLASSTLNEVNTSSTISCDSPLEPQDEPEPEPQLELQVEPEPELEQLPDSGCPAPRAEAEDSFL
UniProt Q15118, whole entry, looked up: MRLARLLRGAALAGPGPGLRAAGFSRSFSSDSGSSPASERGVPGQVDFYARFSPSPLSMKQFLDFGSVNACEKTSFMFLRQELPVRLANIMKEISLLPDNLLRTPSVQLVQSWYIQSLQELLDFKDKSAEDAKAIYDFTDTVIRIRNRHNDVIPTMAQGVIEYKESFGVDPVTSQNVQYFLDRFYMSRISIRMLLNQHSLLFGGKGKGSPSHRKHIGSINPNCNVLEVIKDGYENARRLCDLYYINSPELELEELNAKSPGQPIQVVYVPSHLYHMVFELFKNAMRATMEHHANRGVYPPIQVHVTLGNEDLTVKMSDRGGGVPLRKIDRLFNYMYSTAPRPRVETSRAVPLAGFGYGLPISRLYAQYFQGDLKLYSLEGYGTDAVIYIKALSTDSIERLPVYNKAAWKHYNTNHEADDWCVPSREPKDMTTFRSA
UniProt Q16288, whole entry, looked up: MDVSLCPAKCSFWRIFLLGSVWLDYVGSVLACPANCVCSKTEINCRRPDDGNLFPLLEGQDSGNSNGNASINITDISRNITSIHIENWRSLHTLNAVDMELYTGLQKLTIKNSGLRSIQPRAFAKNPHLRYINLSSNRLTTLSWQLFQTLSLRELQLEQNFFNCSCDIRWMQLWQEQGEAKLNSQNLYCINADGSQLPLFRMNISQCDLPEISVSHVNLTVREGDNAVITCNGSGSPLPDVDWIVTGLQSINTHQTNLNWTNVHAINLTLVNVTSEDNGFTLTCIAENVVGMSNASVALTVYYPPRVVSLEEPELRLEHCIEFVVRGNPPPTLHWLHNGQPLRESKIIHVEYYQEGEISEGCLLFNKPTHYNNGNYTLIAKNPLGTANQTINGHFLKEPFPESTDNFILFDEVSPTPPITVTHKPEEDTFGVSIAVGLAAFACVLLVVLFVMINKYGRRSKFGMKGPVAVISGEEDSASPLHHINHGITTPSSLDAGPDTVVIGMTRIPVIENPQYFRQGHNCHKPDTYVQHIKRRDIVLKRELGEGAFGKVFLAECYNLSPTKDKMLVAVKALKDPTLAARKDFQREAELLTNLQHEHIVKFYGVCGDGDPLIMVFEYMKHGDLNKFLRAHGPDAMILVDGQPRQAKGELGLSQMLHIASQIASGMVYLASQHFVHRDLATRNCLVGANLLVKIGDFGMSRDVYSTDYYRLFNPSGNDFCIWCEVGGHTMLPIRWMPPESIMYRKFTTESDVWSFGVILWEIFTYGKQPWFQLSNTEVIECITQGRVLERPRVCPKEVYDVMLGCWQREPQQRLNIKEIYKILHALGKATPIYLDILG

Key:
Experiment in all cases: kinase-Nluc reporter destabilization hit call (1 = scored as downregulated) (binary); higher = compound decreases kinase abundance
Conditions in all cases: K562, 2-18 h
MAPK1 = MAPK1 (UniProt P28482)
MAPK4 = MAPK4 (UniProt P31152)
MAPKAPK2 = MAPKAPK2 (UniProt P49137)
MKNK1 = MKNK1 (UniProt Q9BUB5)
NTRK2 = NTRK2 (UniProt Q16620)
PAK4 = PAK4 (UniProt O96013)
PBK = PBK (UniProt Q96KB5)
PDGFRB = PDGFRB (UniProt P09619)
PDK1 = PDK1 (UniProt Q15118)
NTRK3 = NTRK3 (UniProt Q16288)

Measured: kinase-Nluc reporter destabilization hit call

Cc1ccc(-n2nc(C(C)(C)C)cc2NC(=O)Nc2ccc(OCCN3CCOCC3)c3ccccc23)cc1 [Doramapimod]
inactive: MAPK1; 10 µM 0 | MAPK4; 10 µM 0 | MAPKAPK2; 10 µM 0 | MKNK1; 10 µM 0 | NTRK2; 10 µM 0 | PAK4; 10 µM 0 | PBK; 10 µM 0 | PDGFRB; 10 µM 0 | PDK1; 10 µM 0

CNC(=O)c1cc(Oc2ccc(NC(=O)Nc3ccc(Cl)c(C(F)(F)F)c3)cc2)ccn1 [Sorafenib]
inactive: MAPK1; 2.5 µM 0 | MAPK4; 2.5 µM 0 | MAPKAPK2; 2.5 µM 0 | MKNK1; 2.5 µM 0 | NTRK2; 2.5 µM 0 | PAK4; 2.5 µM 0 | PBK; 2.5 µM 0 | PDGFRB; 2.5 µM 0 | PDK1; 2.5 µM 0

Cc1[nH]c(/C=C2\C(=O)Nc3ccc(F)cc32)c(C)c1C(=O)NC[C@H](O)CN1CCOCC1
inactive: MAPK1; 2.5 µM 0 | MAPK4; 2.5 µM 0 | MAPKAPK2; 2.5 µM 0 | MKNK1; 2.5 µM 0 | NTRK2; 2.5 µM 0 | PAK4; 2.5 µM 0 | PBK; 2.5 µM 0 | PDGFRB; 2.5 µM 0 | PDK1; 2.5 µM 0

C=CC(=O)N1CCC([C@@H]2CCNc3c(C(N)=O)c(-c4ccc(Oc5ccccc5)cc4)nn32)CC1 [Zanubrutinib]
inactive: MAPK1; 10 µM 0 | MAPK4; 10 µM 0 | MAPKAPK2; 10 µM 0 | MKNK1; 10 µM 0 | NTRK2; 10 µM 0 | NTRK3; 10 µM 0 | PAK4; 10 µM 0 | PBK; 10 µM 0 | PDGFRB; 10 µM 0 | PDK1; 10 µM 0

CC(C)(C)n1nc(-c2ccc(Cl)cc2)c2c(N)ncnc21
inactive: MAPK1; 10 µM 0 | MAPK4; 10 µM 0 | MAPKAPK2; 10 µM 0 | MKNK1; 10 µM 0 | NTRK2; 10 µM 0 | NTRK3; 10 µM 0 | PAK4; 10 µM 0 | PBK; 10 µM 0 | PDK1; 10 µM 0

CC(C)[C@@](C)(O)[C@@H]1CN(c2nc(-c3[nH]nc4ncccc34)c(F)cc2Cl)CCN1
inactive: MAPK1; 10 µM 0 | MAPK4; 10 µM 0 | MAPKAPK2; 10 µM 0 | MKNK1; 10 µM 0 | NTRK2; 10 µM 0 | NTRK3; 10 µM 0 | PAK4; 10 µM 0 | PBK; 10 µM 0 | PDGFRB; 10 µM 0 | PDK1; 10 µM 0

CC(=O)c1c(C)c2cnc(Nc3ccc(N4CCN(C(=O)CCCCCC(=O)N[C@H](C(=O)N5C[C@H](O)C[C@H]5C(=O)NCc5ccc(-c6scnc6C)cc5)C(C)(C)C)CC4)cn3)nc2n(C2CCCC2)c1=O
inactive: MAPK1; 2.5 µM 0 | MAPK4; 2.5 µM 0 | MAPKAPK2; 2.5 µM 0 | MKNK1; 2.5 µM 0 | NTRK2; 2.5 µM 0 | PAK4; 2.5 µM 0 | PBK; 2.5 µM 0 | PDK1; 2.5 µM 0

COc1cc2ncnc(Nc3cccc(Br)c3)c2cc1OC
inactive: MAPK1; 10 µM 0 | MAPK4; 10 µM 0 | MAPKAPK2; 10 µM 0 | MKNK1; 10 µM 0 | NTRK2; 10 µM 0 | NTRK3; 10 µM 0 | PAK4; 10 µM 0 | PBK; 10 µM 0 | PDK1; 10 µM 0

As a short view, 2 of the compounds above.
CC(C)[C@@](C)(O)[C@@H]1CN(c2nc(-c3[nH]nc4ncccc34)c(F)cc2Cl)CCN1
inactive: MAPK1; 10 µM 0 | MAPK4; 10 µM 0 | MAPKAPK2; 10 µM 0 | MKNK1; 10 µM 0 | NTRK2; 10 µM 0 | NTRK3; 10 µM 0 | PAK4; 10 µM 0 | PBK; 10 µM 0 | PDGFRB; 10 µM 0 | PDK1; 10 µM 0

CC(=O)c1c(C)c2cnc(Nc3ccc(N4CCN(C(=O)CCCCCC(=O)N[C@H](C(=O)N5C[C@H](O)C[C@H]5C(=O)NCc5ccc(-c6scnc6C)cc5)C(C)(C)C)CC4)cn3)nc2n(C2CCCC2)c1=O
inactive: MAPK1; 2.5 µM 0 | MAPK4; 2.5 µM 0 | MAPKAPK2; 2.5 µM 0 | MKNK1; 2.5 µM 0 | NTRK2; 2.5 µM 0 | PAK4; 2.5 µM 0 | PBK; 2.5 µM 0 | PDK1; 2.5 µM 0

Next part:

CC1(C)C(=O)N([C@H]2CCc3c(O)cccc32)c2nc(Nc3cccc(CN4CCCC4)c3)ncc21
inactive: MAPK1; 2.5 µM 0 | MAPK4; 2.5 µM 0 | MAPKAPK2; 2.5 µM 0 | MKNK1; 2.5 µM 0 | NTRK3; 2.5 µM 0 | PAK4; 2.5 µM 0 | PBK; 2.5 µM 0 | PDGFRB; 2.5 µM 0 | PDK1; 2.5 µM 0

O=S(=O)(c1cccc2c(O)nccc12)N1CCCNCC1 [Hydroxyfasudil (hydrochloride)]
inactive: MAPK4; 10 µM 0 | MKNK1; 10 µM 0 | NTRK3; 10 µM 0 | PAK4; 10 µM 0 | PBK; 10 µM 0 | PDGFRB; 10 µM 0 | PDK1; 10 µM 0

CN1CCN(c2nc(C3=C(c4c[nH]c5ccccc45)C(=O)NC3=O)c3ccccc3n2)CC1 [Sotrastaurin]
inactive: MAPK1; 2.5 µM 0 | MAPK4; 2.5 µM 0 | MAPKAPK2; 2.5 µM 0 | MKNK1; 2.5 µM 0 | NTRK2; 2.5 µM 0 | NTRK3; 2.5 µM 0 | PAK4; 2.5 µM 0 | PBK; 2.5 µM 0 | PDK1; 2.5 µM 0

COc1cc2ncnc(Nc3ccc(F)c(Cl)c3)c2cc1OCCCN1CCOCC1 [Gefitinib]
inactive: MAPK1; 10 µM 0 | MAPK4; 10 µM 0 | MAPKAPK2; 10 µM 0 | MKNK1; 10 µM 0 | NTRK2; 10 µM 0 | NTRK3; 10 µM 0 | PAK4; 10 µM 0 | PBK; 10 µM 0 | PDGFRB; 10 µM 0 | PDK1; 10 µM 0

O=C(c1ccc(/C=C/c2n[nH]c3ccccc23)cc1)N1CCNCC1
inactive: MAPK1; 2.5 µM 0 | MAPK4; 2.5 µM 0 | MAPKAPK2; 2.5 µM 0 | MKNK1; 2.5 µM 0 | NTRK2; 2.5 µM 0 | PAK4; 2.5 µM 0 | PBK; 2.5 µM 0 | PDGFRB; 2.5 µM 0 | PDK1; 2.5 µM 0

COc1cc(Nc2c(C#N)cnc3cc(OCCCN4CCN(C)CC4)c(OC)cc23)c(Cl)cc1Cl [Bosutinib]
inactive: MAPK1; 2.5 µM 0 | MAPK4; 2.5 µM 0 | MAPKAPK2; 2.5 µM 0 | MKNK1; 2.5 µM 0 | NTRK2; 2.5 µM 0 | PAK4; 2.5 µM 0 | PBK; 2.5 µM 0 | PDGFRB; 2.5 µM 0 | PDK1; 2.5 µM 0

CC(C)N(CCC(=O)c1ccc2ccccc2c1)Cc1ccccc1
inactive: MAPK1; 10 µM 0 | MAPK4; 10 µM 0 | MAPKAPK2; 10 µM 0 | MKNK1; 10 µM 0 | NTRK2; 10 µM 0 | NTRK3; 10 µM 0 | PAK4; 10 µM 0 | PBK; 10 µM 0 | PDGFRB; 10 µM 0 | PDK1; 10 µM 0

COc1cc2/c(=N/c3ccc(Br)cc3F)nc[nH]c2cc1OCC1CCN(C)CC1 [Vandetanib]
inactive: MAPK1; 2.5 µM 0 | MAPK4; 2.5 µM 0 | MAPKAPK2; 2.5 µM 0 | MKNK1; 2.5 µM 0 | NTRK2; 2.5 µM 0 | NTRK3; 2.5 µM 0 | PAK4; 2.5 µM 0 | PBK; 2.5 µM 0 | PDK1; 2.5 µM 0

NC(=O)c1c(OCc2c(F)cc(Br)cc2F)nsc1NC(=O)NCCCCN1CCCC1
inactive: MAPK1; 2.5 µM 0 | MAPK4; 2.5 µM 0 | MAPKAPK2; 2.5 µM 0 | MKNK1; 2.5 µM 0 | NTRK2; 2.5 µM 0 | NTRK3; 2.5 µM 0 | PAK4; 2.5 µM 0 | PBK; 2.5 µM 0 | PDK1; 2.5 µM 0

CC1(C)CNc2cc(NC(=O)c3cccnc3NCc3ccncc3)ccc21 [Motesanib]
inactive: MAPK1; 2.5 µM 0 | MAPK4; 2.5 µM 0 | MAPKAPK2; 2.5 µM 0 | MKNK1; 2.5 µM 0 | NTRK2; 2.5 µM 0 | NTRK3; 2.5 µM 0 | PAK4; 2.5 µM 0 | PBK; 2.5 µM 0 | PDGFRB; 2.5 µM 0 | PDK1; 2.5 µM 0

Cc1cc(Nc2cc(N3CCN(C)CC3)nc(/C=C/c3ccccc3)n2)n[nH]1
inactive: MAPK1; 2.5 µM 0 | MAPK4; 2.5 µM 0 | MAPKAPK2; 2.5 µM 0 | MKNK1; 2.5 µM 0 | NTRK2; 2.5 µM 0 | NTRK3; 2.5 µM 0 | PAK4; 2.5 µM 0 | PBK; 2.5 µM 0 | PDK1; 2.5 µM 0

CN1CCN(c2ccc3nc(-c4c(N)c5c(F)cccc5[nH]c4=O)[nH]c3c2)CC1 [Dovitinib (lactate)]
inactive: MAPK1; 2.5 µM 0 | MAPK4; 2.5 µM 0 | MAPKAPK2; 2.5 µM 0 | MKNK1; 2.5 µM 0 | NTRK2; 2.5 µM 0 | PAK4; 2.5 µM 0 | PBK; 2.5 µM 0 | PDGFRB; 2.5 µM 0 | PDK1; 2.5 µM 0

O=c1ncn2nc(Sc3ccc(F)cc3F)ccc2c1-c1c(Cl)cccc1Cl [Neflamapimod]
inactive: MAPK1; 10 µM 0 | MAPK4; 10 µM 0 | MAPKAPK2; 10 µM 0 | MKNK1; 10 µM 0 | NTRK2; 10 µM 0 | NTRK3; 10 µM 0 | PAK4; 10 µM 0 | PBK; 10 µM 0 | PDGFRB; 10 µM 0 | PDK1; 10 µM 0

CCN(CC)CCNC(=O)c1c(C)[nH]c(/C=C2\C(=O)Nc3ccc(F)cc32)c1C [Sunitinib]
inactive: MAPK1; 2.5 µM 0 | MAPK4; 2.5 µM 0 | MAPKAPK2; 2.5 µM 0 | MKNK1; 2.5 µM 0 | NTRK2; 2.5 µM 0 | PAK4; 2.5 µM 0 | PBK; 2.5 µM 0 | PDGFRB; 2.5 µM 0 | PDK1; 2.5 µM 0

CC(C)n1nc(-c2cc3cc(O)ccc3[nH]2)c2c(N)ncnc21 [Torkinib]
inactive: MAPK1; 2.5 µM 0 | MAPK4; 2.5 µM 0 | MAPKAPK2; 2.5 µM 0 | MKNK1; 2.5 µM 0 | NTRK3; 2.5 µM 0 | PAK4; 2.5 µM 0 | PBK; 2.5 µM 0 | PDGFRB; 2.5 µM 0 | PDK1; 2.5 µM 0

Nc1ncnc2c1c(-c1cnc3[nH]ccc3c1)nn2C1CCCC1
inactive: MAPK1; 2.5 µM 0 | MAPK4; 2.5 µM 0 | MAPKAPK2; 2.5 µM 0 | MKNK1; 2.5 µM 0 | NTRK2; 2.5 µM 0 | NTRK3; 2.5 µM 0 | PAK4; 2.5 µM 0 | PBK; 2.5 µM 0 | PDK1; 2.5 µM 0

Cc1cn(-c2cc(NC(=O)c3ccc(C)c(Nc4nccc(-c5cccnc5)n4)c3)cc(C(F)(F)F)c2)cn1 [Nilotinib]
inactive: MAPK1; 2.5 µM 0 | MAPK4; 2.5 µM 0 | MAPKAPK2; 2.5 µM 0 | MKNK1; 2.5 µM 0 | NTRK2; 2.5 µM 0 | PAK4; 2.5 µM 0 | PBK; 2.5 µM 0 | PDGFRB; 2.5 µM 0 | PDK1; 2.5 µM 0

COc1cc(N2CCC(N3CCN(C)CC3)CC2)ccc1Nc1ncc(Cl)c(Nc2ccccc2S(=O)(=O)C(C)C)n1
inactive: MAPK1; 2.5 µM 0 | MAPK4; 2.5 µM 0 | MAPKAPK2; 2.5 µM 0 | MKNK1; 2.5 µM 0 | NTRK2; 2.5 µM 0 | NTRK3; 2.5 µM 0 | PAK4; 2.5 µM 0 | PBK; 2.5 µM 0 | PDGFRB; 2.5 µM 0 | PDK1; 2.5 µM 0
